Laboratory results as given in patent US20090172842A1.
Results are given in words; binding and its absence hold for the method and conditions named. Binding seen in cells or lysates may run through a third protein. Some results given as binding are weak or reduced against the parent protein; the word gives no strength.

The chains behind the UniProt entries cited, without tags or fusion partners. Where a name states a change or a piece, a line headed by the entry shows the natural chain unless it says otherwise. Residues count along the entry.
UniProt P69249, residues 58-180: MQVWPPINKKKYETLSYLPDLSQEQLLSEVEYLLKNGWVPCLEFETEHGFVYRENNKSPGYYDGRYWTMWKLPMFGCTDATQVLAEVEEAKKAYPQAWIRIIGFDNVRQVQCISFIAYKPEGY
UniProt P24624: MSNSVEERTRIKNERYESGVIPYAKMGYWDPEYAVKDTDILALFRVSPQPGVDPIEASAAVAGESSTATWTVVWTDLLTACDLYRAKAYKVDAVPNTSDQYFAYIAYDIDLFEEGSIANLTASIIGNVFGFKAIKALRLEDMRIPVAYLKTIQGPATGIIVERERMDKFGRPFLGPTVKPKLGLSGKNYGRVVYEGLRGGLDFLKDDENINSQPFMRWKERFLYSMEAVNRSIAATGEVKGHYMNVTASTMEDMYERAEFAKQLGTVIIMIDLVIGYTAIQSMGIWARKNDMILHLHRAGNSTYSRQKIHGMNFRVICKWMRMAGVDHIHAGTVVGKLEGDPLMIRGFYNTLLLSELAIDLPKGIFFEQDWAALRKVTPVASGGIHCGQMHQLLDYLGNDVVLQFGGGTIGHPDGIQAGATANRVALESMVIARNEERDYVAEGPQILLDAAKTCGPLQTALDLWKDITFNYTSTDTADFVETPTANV

Target: endogenous tobacco RUBISCO small subunit (Nicotiana tabacum (tobacco)) (UniProt P69249)
Assay: Ni-NTA co-purification of SSU with LSU-6His from pTCP104-1 leaves; SDS-PAGE and Native-PAGE immunoblots with anti-His and anti-rbcS antibodies

Griffithsia monilis RUBISCO large subunit with C-terminal 6-His tag, product of the chloroplast transgene cpGMNrbcL (pTCP104 tobacco) (from UniProt P24624 1-488) (enzyme)
binding: binds
